These are yes or no findings as the source states them, for the method shown. Some results given as binding are weak or reduced against the parent protein; the word gives no strength.
Key:
TR2 polypeptide (human) [1] = target: TR2 polypeptide (human) (UniProt Q92956); assay: phage display selection; no details given
TR2 polypeptide (human) [2] = target: TR2 polypeptide (human) (UniProt Q92956); assay: phage display selection of an scFv library on TR2 polypeptide

By UniProt entry, the sequences of proteins in these tests, tags left out. Where a name states a change or a piece, a line headed by the entry shows the natural chain unless it says otherwise.
UniProt Q92956: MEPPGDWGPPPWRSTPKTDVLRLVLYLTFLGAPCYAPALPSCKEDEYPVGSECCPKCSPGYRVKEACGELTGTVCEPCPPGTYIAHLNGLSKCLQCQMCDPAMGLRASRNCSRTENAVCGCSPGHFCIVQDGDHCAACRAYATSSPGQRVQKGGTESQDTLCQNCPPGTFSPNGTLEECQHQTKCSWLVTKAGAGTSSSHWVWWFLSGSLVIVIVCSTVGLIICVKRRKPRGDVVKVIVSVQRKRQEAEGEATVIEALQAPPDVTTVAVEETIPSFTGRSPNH

- binding (TR2 polypeptide (human) [1]): binds
- binding (TR2 polypeptide (human) [2]): binds
B1: TR01G03 (scFv)
scFv: QVQLVQSGAEVKKPGSSVKVSCKTSGGTFGNYAINWVRQAPGQGLEWLGGIIPIYGTANYGEKFHGRLTLTADKSTSTAYMELRSLRSEDTAVYYCATHTGGYNYWSFDLWGQGTLVTVSSGGGGSGGGGSGGGGSALETTLTQSPGTLSLSPGDRATLSCWASQSVGSYLAWYQQKPGQAPRLLISGASRRATGIPDRFSGSGSGTDFTLTISRLEPEDFAVYYCQQYGTSVLTFGGGTRLEIKR
